Measured values from PubChem BioAssay AID248 (DTP/NCI, 2004).
The list shows only some results of the screen, not a fair sample: it is rich in T/C values a quarter to a half above the control, in often repeated tests (any T/C) and in doses without a T/C. Further doses and runs are listed elsewhere. T/C gives the treated animals as a percentage of the vehicle group. Some doses have a count of surviving animals in place of a T/C: the source files T/C as zero there, which appears to mark a toxic dose or a test without result, not a measured value. Some survivor counts are full or nearly so, which does not show that the dose was tolerated: the source hardly ever lists a survival T/C far under the control, and the zero likely stands for such cases as well. Survivors were counted at the toxicity check, usually on the fifth day, unless a day is given; later deaths do not show. Schedule codes are those of the source, read here as Q, the interval in days (D) or hours (H), X, the number of doses. Some schedules carry Z or #; the key to these is not given. Some structures stand for samples that the source files as different forms (salt, stereo form or complex); doses refer to the form tested. Where survival is the endpoint, the PubChem record calls one and a half times the control and up active, and a quarter to a half above the control has no call in these data; cut-offs in other NCI protocols can differ. Some entries were tested several times; their values stand side by side, smallest first.

Test system: L1210 leukemia ip in BDF1 mice, survival T/C
Experiment: NCI In Vivo Anticancer Drug Screen. Data for tumor model L1210 Leukemia (intraperitoneal) in B6D2F1 (BDF1) mice
Settings: T/C endpoint: mean survival time, higher T/C = longer survival
[1] = dose: 400.0 mg/kg/injection, schedule: Q04DX003 (ip), vehicle: saline with Tween-80
[2] = dose: 400.0 mg/kg/injection, schedule: Q04DX003 (ip), vehicle: saline
[3] = dose: 400.0 mg/kg/injection, schedule: Q04DX003 (ip), vehicle: Klucel (hydroxypropylcellulose) (HPC)
[4] = dose: 400.0 mg/kg/injection, schedule: Q01DX001 (ip), vehicle: saline
[5] = dose: 100.0 mg/kg/injection, schedule: Q04DX003 (ip), vehicle: saline with Tween-80
[6] = dose: 200.0 mg/kg/injection, schedule: Q04DX003 (ip), vehicle: saline with Tween-80
[7] = dose: 100.0 mg/kg/injection, schedule: Q01DX009 (ip), vehicle: saline with Tween-80
[8] = dose: 200.0 mg/kg/injection, schedule: Q01DX001 (ip), vehicle: saline
[9] = dose: 225.0 mg/kg/injection, schedule: Q01DX009 (ip), vehicle: acetone

## Cc1ccccc1NC(=O)CS
[1]
  survivor count: 5 of 6

## C[n+]1ccc(Nc2ccc(NC(=O)c3ccc(N)cc3[N+](=O)[O-])cc2)cc1
dose: 100.0 mg/kg/injection, schedule: Q01DX001 (ip), vehicle: saline with Tween-80
  T/C: 100, 106, 108, 138 % of control
dose: 200.0 mg/kg/injection, schedule: Q01DX001 (ip), vehicle: saline with Tween-80
  T/C: 93, 103, 104, 106 % of control

## N#CSC1CSC(SC2=NC(SC#N)CS2)=N1 (centres undefined)
dose: 400.0 mg/kg/injection, schedule: Q01DX009 (ip), vehicle: Klucel (hydroxypropylcellulose) (HPC)
  survivor count: 0 of 6
[2]
  survivor count: 0 of 6

## N#CC(C#N)=Cc1ccsc1
dose: 50.0 mg/kg/injection, schedule: Q04DX003 (ip), vehicle: Klucel (hydroxypropylcellulose) (HPC)
  survivor count: 1 of 6
dose: 100.0 mg/kg/injection, schedule: Q04DX003 (ip), vehicle: Klucel (hydroxypropylcellulose) (HPC)
  survivor count: 0 of 6
dose: 200.0 mg/kg/injection, schedule: Q04DX003 (ip), vehicle: Klucel (hydroxypropylcellulose) (HPC)
  survivor count: 0 of 6
[3]
  survivor count: 0 of 6

## CCCCCCCCCCCCSC1=NCCN1
dose: 175.0 mg/kg/injection, schedule: Q04DX003 (ip), vehicle: Klucel (hydroxypropylcellulose) (HPC)
  survivor count: 2 of 6
dose: 350.0 mg/kg/injection, schedule: Q04DX003 (ip), vehicle: Klucel (hydroxypropylcellulose) (HPC)
  survivor count: 0 of 6

## Clc1ccccc1OB(Oc1ccccc1Cl)Oc1ccccc1Cl
[4]
  survivor count: 1 of 4

## N#Cc1cc([N+](=O)[O-])c(Cl)c([N+](=O)[O-])c1Cl
dose: 25.0 mg/kg/injection, schedule: Q04DX003 (ip), vehicle: saline with Tween-80
  survivor count: 0 of 6
[5]
  survivor count: 1 of 6
[6]
  survivor count: 0 of 6
[1]
  survivor count: 0 of 6

## CCN(CC)CCCC(C)Nc1ccc(O)c2c1C(=O)c1ccccc1C2=O (centres undefined)
dose: 400.0 mg/kg/injection, schedule: Q04DX002 (ip), vehicle: saline
  survivor count: 1 of 3

## Nc1nc2nc3c(nc2c(=O)[nH]1)CN(c1ccc(C(=O)O)cc1)C3=O
dose: 50.0 mg/kg/injection, schedule: Q01DX009 (ip), vehicle: saline with Tween-80
  survivor count: 6 of 6
[7]
  survivor count: 5 of 6
dose: 200.0 mg/kg/injection, schedule: Q01DX009 (ip), vehicle: saline with Tween-80
  survivor count: 2 of 6

## CC(=O)Nc1ccc(C(=O)Nc2ccc(C3=NCCN3)cc2)cc1C(=O)Nc1ccc(C2=NCCN2)cc1
dose: 125.0 mg/kg/injection, schedule: Q01DX015 (ip), vehicle: carboxymethylcellulose (CMC)
  T/C: 141 % of control
dose: 500.0 mg/kg/injection, schedule: Q01DX015 (ip), vehicle: carboxymethylcellulose (CMC)
  survivor count: 1 of 6

## Cc1c(C(=O)O)c(C(=O)O)c(C)n1-c1ccccc1C(=O)O (tested in a mixture with another compound)
[2]
  survivor count: 6 of 6

## CCCCCCCCCCS(=O)(=O)CC(=O)O
[3]
  survivor count: 1 of 6
[1]
  survivor count: 0 of 6

## C=C(C)C1(CCCC)C(=O)NC(=O)NC1=O
dose: 300.0 mg/kg/injection, schedule: Q01DX001 (ip), vehicle: saline
  survivor count: 3 of 6

## ON=C(CCl)CCl
dose: 12.5 mg/kg/injection, schedule: Q01DX009 (ip), vehicle: saline
  survivor count: 0 of 3
dose: 25.0 mg/kg/injection, schedule: Q01DX009 (ip), vehicle: saline
  survivor count: 0 of 3
dose: 50.0 mg/kg/injection, schedule: Q01DX001 (ip), vehicle: saline
  survivor count: 0 of 6
dose: 50.0 mg/kg/injection, schedule: Q01DX009 (ip), vehicle: saline
  survivor count: 0 of 3
dose: 100.0 mg/kg/injection, schedule: Q01DX001 (ip), vehicle: saline
  survivor count: 0 of 6
dose: 100.0 mg/kg/injection, schedule: Q01DX009 (ip), vehicle: saline
  survivor count: 0 of 3
[8]
  survivor count: 0 of 6
dose: 200.0 mg/kg/injection, schedule: Q01DX009 (ip), vehicle: saline
  survivor count: 0 of 3
[4]
  survivor count: 0 of 6

## C1#CCCCCCC#CCCCC1
[9]
  survivor count: 0 of 6
dose: 300.0 mg/kg/injection, schedule: Q01DX001 (ip), vehicle: acetone
  survivor count: 3 of 6
dose: 340.0 mg/kg/injection, schedule: Q01DX009 (ip), vehicle: acetone
  survivor count: 0 of 6

## NC(N)=NN=C(CO)CO
dose: 15.0 mg/kg/injection, schedule: Q01DX Z (ip), vehicle: methylcellulose (MC)
  T/C: 130 % of control
dose: 15.0 mg/kg/injection, schedule: Q01DX Z (ip), vehicle: saline
  survivor count: 6 of 6
dose: 60.0 mg/kg/injection, schedule: Q01DX Z (ip), vehicle: methylcellulose (MC)
  survivor count: 2 of 6
dose: 120.0 mg/kg/injection, schedule: Q01DX Z (ip), vehicle: methylcellulose (MC)
  survivor count: 0 of 6
dose: 240.0 mg/kg/injection, schedule: Q01DX Z (oral), vehicle: methylcellulose (MC)
  survivor count: 1 of 6
dose: 480.0 mg/kg/injection, schedule: Q01DX Z (oral), vehicle: methylcellulose (MC)
  survivor count: 0 of 6

## O=[N+]([O-])/C=C/c1ccc([N+](=O)[O-])cc1Cl
dose: 75.0 mg/kg/injection, schedule: Q01DX009 (ip), vehicle: saline with Tween-80
  survivor count: 0 of 6
[5]
  survivor count: 3 of 6
dose: 115.0 mg/kg/injection, schedule: Q01DX009 (ip), vehicle: saline with Tween-80
  survivor count: 0 of 6
dose: 170.0 mg/kg/injection, schedule: Q01DX009 (ip), vehicle: saline with Tween-80
  survivor count: 0 of 6
[6]
  survivor count: 5 of 6

## O=C1C(O)=C(Cl)C(=O)C(OC2=C(Cl)C(=O)C(OC3=C(Cl)C(=O)C(OC4=C(Cl)C(=O)C(Cl)=C(Cl)C4=O)=C(Cl)C3=O)=C(Cl)C2=O)=C1Cl
[2]
  survivor count: 3 of 6

## OC(c1ccc(F)cc1)(c1ccc(F)cc1)C1CC1
dose: 400.0 mg/kg/injection, schedule: Q01DX001 (ip), vehicle: saline with Tween-80
  survivor count: 3 of 6

## CN(C)c1ccc2c(c1)Cc1cc(N=C3C=CC(=O)O3)ccc1-2
dose: 150.0 mg/kg/injection, schedule: Q01DX009 (ip), vehicle: acetone
  survivor count: 2 of 6
dose: 150.0 mg/kg/injection, schedule: Q04DX003 (ip), vehicle: saline
  survivor count: 5 of 6
[8]
  survivor count: 5 of 6
[9]
  survivor count: 2 of 6
dose: 225.0 mg/kg/injection, schedule: Q04DX003 (ip), vehicle: saline
  survivor count: 3 of 6
dose: 335.0 mg/kg/injection, schedule: Q04DX003 (ip), vehicle: saline
  survivor count: 2 of 6
[4]
  survivor count: 3 of 6

## C/C(=N\NC(N)=O)C(F)(F)F
dose: 480.0 mg/kg/injection, schedule: Q01DX Z (ip), vehicle: carboxymethylcellulose (CMC)
  survivor count: 1 of 6
dose: 960.0 mg/kg/injection, schedule: Q01DX Z (oral), vehicle: carboxymethylcellulose (CMC)
  survivor count: 0 of 6

## CCC1c2ccc3cc(OC)ccc3c2C(=O)C1CC(=O)O (centres undefined)
[4]
  survivor count: 0 of 6

## Nc1cc([N+](=O)[O-])cc([N+](=O)[O-])c1
dose: 400.0 mg/kg/injection, schedule: Q01DX001 (ip), vehicle: carboxymethylcellulose (CMC)
  survivor count: 2 of 4

## CCN=C(c1ccc(NC(=O)c2ccc(C(=O)Nc3ccc(C(=NCC)N(CC)C(=O)NC(C)C)cc3)cc2)cc1)N(CC)C(=O)NC(C)C
dose: 12.0 mg/kg/injection, schedule: Q01DX015 (ip), vehicle: methylcellulose (MC)
  survivor count: 5 of 6
dose: 50.0 mg/kg/injection, schedule: Q01DX015 (ip), vehicle: methylcellulose (MC)
  survivor count: 0 of 6
dose: 100.0 mg/kg/injection, schedule: Q01DX015 (ip), vehicle: methylcellulose (MC)
  survivor count: 0 of 6
dose: 200.0 mg/kg/injection, schedule: Q01DX015 (ip), vehicle: methylcellulose (MC)
  survivor count: 0 of 6
dose: 400.0 mg/kg/injection, schedule: Q01DX015 (ip), vehicle: methylcellulose (MC)
  survivor count: 0 of 6

## CCCCn1nnc2c(NN)nc(N)nc21
[7]
  survivor count: 4 of 6

## OC(c1ccccc1)(c1ccccc1)c1ccccc1
dose: 200.0 mg/kg/injection, schedule: Q04DX002 (ip), vehicle: Klucel (hydroxypropylcellulose) (HPC)
  T/C: 130 % of control
